{"source": "PubChem BioAssay AID743458 (Peter MacCallum Cancer Centre, 2014)", "aim": "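Find knock-downs that make vorinostat-resistant colon cancer cells sensitive again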 (follow-up of hits)", "cell system": "human HCT116-VR colon cancer cells made resistant to vorinostat", "reagents": "single siRNA or pool against human genes, 25 nM per single siRNA", "duration": "about 72 h after transfection, including 24 h of drug", "challenge": "vorinostat, 2.5 µM final, for 24 h", "measured": "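Live-cell fluorescent viability and luminescent caspase 3/7 activity after vorinostat treatment, background subtracted, mean of duplicate plates, as fold change over mock-transfected wells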", "scale": "viability relative to mock: higher = more living cells than mock; caspase activity relative to mock: higher = more apoptosis than mock", "active means": "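An siRNA counts as active if classed as reduced viability or as caspase activation, otherwise inactive; a hit class needed wells that remained healthy in the absence of drug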", "note": "The whole screen tested about 1,800 reagents; below is an unselected part. 732 of all reagents (41%) count as active. 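Calls are per siRNA reagent; a gene was deemed confirmed only if most of its four siRNAs scored.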 The numbers tell different reagents against one gene apart."}
{"gene":"NPEPPS (aminopeptidase puromycin sensitive)","reagent no.":1,"viability relative to mock":0.57,"caspase activity relative to mock":1.19,"viability hit class":"no change","caspase hit class":"no change","outcome":"inactive"}
{"gene":"NPEPPS (aminopeptidase puromycin sensitive)","reagent no.":2,"viability relative to mock":0.52,"caspase activity relative to mock":1,"viability hit class":"reduced viability","caspase hit class":"no change","outcome":"active"}
{"gene":"NPEPPS (aminopeptidase puromycin sensitive)","reagent no.":3,"viability relative to mock":0.42,"caspase activity relative to mock":1.34,"viability hit class":"reduced viability","caspase hit class":"no change","outcome":"active"}
{"gene":"NPEPPS (aminopeptidase puromycin sensitive)","reagent no.":4,"viability relative to mock":0.53,"caspase activity relative to mock":1.16,"viability hit class":"reduced viability","caspase hit class":"no change","outcome":"active"}
{"gene":"SCLY (selenocysteine lyase)","reagent no.":1,"viability relative to mock":0.9,"caspase activity relative to mock":1.08,"viability hit class":"no change","caspase hit class":"no change","outcome":"inactive"}
{"gene":"SCLY (selenocysteine lyase)","reagent no.":2,"viability relative to mock":0.94,"caspase activity relative to mock":1.4,"viability hit class":"no change","caspase hit class":"no change","outcome":"inactive"}
{"gene":"SCLY (selenocysteine lyase)","reagent no.":3,"viability relative to mock":0.82,"caspase activity relative to mock":3.32,"viability hit class":"no change","caspase hit class":"caspase activation","outcome":"active"}
{"gene":"SCLY (selenocysteine lyase)","reagent no.":4,"viability relative to mock":0.53,"caspase activity relative to mock":6.14,"viability hit class":"reduced viability","caspase hit class":"caspase activation","outcome":"active"}
{"gene":"FXYD7 (FXYD domain containing ion transport regulator 7)","reagent no.":1,"viability relative to mock":1.04,"caspase activity relative to mock":1.1,"viability hit class":"no change","caspase hit class":"no change","outcome":"inactive"}
{"gene":"FXYD7 (FXYD domain containing ion transport regulator 7)","reagent no.":2,"viability relative to mock":0.68,"caspase activity relative to mock":2.4,"viability hit class":"no change","caspase hit class":"no change","outcome":"inactive"}
{"gene":"FXYD7 (FXYD domain containing ion transport regulator 7)","reagent no.":3,"viability relative to mock":0.92,"caspase activity relative to mock":1.22,"viability hit class":"no change","caspase hit class":"no change","outcome":"inactive"}
{"gene":"SC5D (sterol-C5-desaturase)","reagent no.":1,"viability relative to mock":0.94,"caspase activity relative to mock":1.43,"viability hit class":"no change","caspase hit class":"no change","outcome":"inactive"}
{"gene":"SC5D (sterol-C5-desaturase)","reagent no.":2,"viability relative to mock":0.54,"caspase activity relative to mock":3.45,"viability hit class":"reduced viability","caspase hit class":"caspase activation","outcome":"active"}
{"gene":"SC5D (sterol-C5-desaturase)","reagent no.":3,"viability relative to mock":0.51,"caspase activity relative to mock":3.2,"viability hit class":"reduced viability","caspase hit class":"caspase activation","outcome":"active"}
{"gene":"SC5D (sterol-C5-desaturase)","reagent no.":4,"viability relative to mock":0.69,"caspase activity relative to mock":0.84,"viability hit class":"no change","caspase hit class":"no change","outcome":"inactive"}

Targets listed so far whose gene name starts with N or n:
{"gene":"NPEPPS (aminopeptidase puromycin sensitive)","reagent no.":1,"viability relative to mock":0.57,"caspase activity relative to mock":1.19,"viability hit class":"no change","caspase hit class":"no change","outcome":"inactive"}
{"gene":"NPEPPS (aminopeptidase puromycin sensitive)","reagent no.":2,"viability relative to mock":0.52,"caspase activity relative to mock":1,"viability hit class":"reduced viability","caspase hit class":"no change","outcome":"active"}
{"gene":"NPEPPS (aminopeptidase puromycin sensitive)","reagent no.":3,"viability relative to mock":0.42,"caspase activity relative to mock":1.34,"viability hit class":"reduced viability","caspase hit class":"no change","outcome":"active"}
{"gene":"NPEPPS (aminopeptidase puromycin sensitive)","reagent no.":4,"viability relative to mock":0.53,"caspase activity relative to mock":1.16,"viability hit class":"reduced viability","caspase hit class":"no change","outcome":"active"}

The list goes on:
{"gene":"RNF122 (ring finger protein 122)","reagent no.":1,"viability relative to mock":1.02,"caspase activity relative to mock":1.7,"viability hit class":"no change","caspase hit class":"no change","outcome":"inactive"}
{"gene":"RNF122 (ring finger protein 122)","reagent no.":2,"viability relative to mock":0.76,"caspase activity relative to mock":2.2,"viability hit class":"no change","caspase hit class":"no change","outcome":"inactive"}
{"gene":"RNF122 (ring finger protein 122)","reagent no.":3,"viability relative to mock":0.97,"caspase activity relative to mock":1.56,"viability hit class":"no change","caspase hit class":"no change","outcome":"inactive"}
{"gene":"RNF122 (ring finger protein 122)","reagent no.":4,"viability relative to mock":0.84,"caspase activity relative to mock":0.73,"viability hit class":"no change","caspase hit class":"no change","outcome":"inactive"}
{"gene":"PIPOX (pipecolic acid and sarcosine oxidase)","reagent no.":1,"viability relative to mock":0.22,"caspase activity relative to mock":2.68,"viability hit class":"reduced viability","caspase hit class":"caspase activation","outcome":"active"}
{"gene":"PIPOX (pipecolic acid and sarcosine oxidase)","reagent no.":2,"viability relative to mock":0.82,"caspase activity relative to mock":1.47,"viability hit class":"no change","caspase hit class":"no change","outcome":"inactive"}
{"gene":"PIPOX (pipecolic acid and sarcosine oxidase)","reagent no.":3,"viability relative to mock":0.53,"caspase activity relative to mock":2.16,"viability hit class":"reduced viability","caspase hit class":"no change","outcome":"active"}
{"gene":"PIPOX (pipecolic acid and sarcosine oxidase)","reagent no.":4,"viability relative to mock":0.76,"caspase activity relative to mock":1.89,"viability hit class":"no change","caspase hit class":"no change","outcome":"inactive"}
{"gene":"CPSF1 (cleavage and polyadenylation specific factor 1)","reagent no.":1,"viability relative to mock":0.96,"caspase activity relative to mock":1.52,"viability hit class":"no change","caspase hit class":"no change","outcome":"inactive"}
{"gene":"CPSF1 (cleavage and polyadenylation specific factor 1)","reagent no.":2,"viability relative to mock":0.41,"caspase activity relative to mock":2.84,"viability hit class":"no change","caspase hit class":"no change","outcome":"inactive"}
{"gene":"CPSF1 (cleavage and polyadenylation specific factor 1)","reagent no.":3,"viability relative to mock":0.73,"caspase activity relative to mock":4.38,"viability hit class":"no change","caspase hit class":"caspase activation","outcome":"active"}
{"gene":"CPSF1 (cleavage and polyadenylation specific factor 1)","reagent no.":4,"viability relative to mock":0.88,"caspase activity relative to mock":1.05,"viability hit class":"no change","caspase hit class":"no change","outcome":"inactive"}
